Measured values reported in article PMC10570300.
Changes are numbered by the printed parent chain. No constants are given. Whether binding was seen depends on the method and setting. Binding seen in cells or lysates may run through a third protein. Some entries that bind do so weakly or less than the wild type. For some of these results: Where a sequence is shown, tags or fusion partners need not be part of it.

Sequences of proteins named here, by UniProt entry; tags and fusion partners are left off. Residues count along the entry.
UniProt P06804, residues 80-235: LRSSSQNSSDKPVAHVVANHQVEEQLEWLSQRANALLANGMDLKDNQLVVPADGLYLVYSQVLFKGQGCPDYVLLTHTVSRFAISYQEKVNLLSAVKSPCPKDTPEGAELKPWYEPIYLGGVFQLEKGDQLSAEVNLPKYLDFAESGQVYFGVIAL
UniProt Q9QZQ1: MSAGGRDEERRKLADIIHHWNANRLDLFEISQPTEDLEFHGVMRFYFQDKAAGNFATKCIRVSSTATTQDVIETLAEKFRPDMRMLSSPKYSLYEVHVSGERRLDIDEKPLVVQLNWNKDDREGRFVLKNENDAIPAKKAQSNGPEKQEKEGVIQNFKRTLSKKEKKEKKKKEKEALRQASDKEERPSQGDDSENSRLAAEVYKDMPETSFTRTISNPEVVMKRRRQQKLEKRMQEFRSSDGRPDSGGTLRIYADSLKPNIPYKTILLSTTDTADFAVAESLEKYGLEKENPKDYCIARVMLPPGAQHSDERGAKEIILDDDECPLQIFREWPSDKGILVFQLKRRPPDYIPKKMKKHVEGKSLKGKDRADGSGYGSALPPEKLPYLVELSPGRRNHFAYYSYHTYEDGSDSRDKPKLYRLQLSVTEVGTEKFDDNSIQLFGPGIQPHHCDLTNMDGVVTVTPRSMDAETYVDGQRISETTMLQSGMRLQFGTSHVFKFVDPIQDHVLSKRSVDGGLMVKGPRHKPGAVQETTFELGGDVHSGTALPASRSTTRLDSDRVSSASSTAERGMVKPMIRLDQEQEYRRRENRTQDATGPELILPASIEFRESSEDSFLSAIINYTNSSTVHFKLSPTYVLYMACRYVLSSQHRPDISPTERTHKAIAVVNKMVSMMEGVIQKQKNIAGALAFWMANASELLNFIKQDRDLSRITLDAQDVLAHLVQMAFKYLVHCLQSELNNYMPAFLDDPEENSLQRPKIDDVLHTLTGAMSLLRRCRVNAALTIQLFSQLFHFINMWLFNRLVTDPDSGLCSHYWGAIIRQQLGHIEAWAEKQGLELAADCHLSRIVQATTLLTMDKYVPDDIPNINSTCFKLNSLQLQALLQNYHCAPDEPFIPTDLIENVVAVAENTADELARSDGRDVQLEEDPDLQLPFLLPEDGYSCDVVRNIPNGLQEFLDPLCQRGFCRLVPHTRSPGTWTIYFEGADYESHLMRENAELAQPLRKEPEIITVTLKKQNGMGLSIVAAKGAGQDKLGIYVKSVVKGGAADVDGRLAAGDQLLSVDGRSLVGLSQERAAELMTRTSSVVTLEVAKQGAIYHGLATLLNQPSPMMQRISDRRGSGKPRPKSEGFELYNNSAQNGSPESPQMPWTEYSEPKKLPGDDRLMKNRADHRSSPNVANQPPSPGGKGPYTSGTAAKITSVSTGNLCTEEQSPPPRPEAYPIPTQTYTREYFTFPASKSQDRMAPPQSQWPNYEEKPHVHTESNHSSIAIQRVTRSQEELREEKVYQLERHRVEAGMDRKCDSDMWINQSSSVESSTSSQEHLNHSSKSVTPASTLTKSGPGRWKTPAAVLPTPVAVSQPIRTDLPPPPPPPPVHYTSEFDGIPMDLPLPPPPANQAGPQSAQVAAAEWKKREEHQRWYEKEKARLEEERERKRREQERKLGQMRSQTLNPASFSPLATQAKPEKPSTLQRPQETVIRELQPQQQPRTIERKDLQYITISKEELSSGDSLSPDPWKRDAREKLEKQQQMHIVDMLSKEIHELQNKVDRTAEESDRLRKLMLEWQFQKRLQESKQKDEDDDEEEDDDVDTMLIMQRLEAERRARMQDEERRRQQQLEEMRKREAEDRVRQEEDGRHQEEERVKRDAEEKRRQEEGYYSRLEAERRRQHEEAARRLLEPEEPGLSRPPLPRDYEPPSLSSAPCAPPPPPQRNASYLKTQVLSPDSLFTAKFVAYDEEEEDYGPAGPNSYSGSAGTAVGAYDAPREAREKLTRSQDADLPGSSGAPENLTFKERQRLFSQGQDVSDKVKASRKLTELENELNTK

How the values were obtained:
TNFα-FLAG [1] = target: TNFα-FLAG (UniProt P06804); assay: co-IP; Complex I precipitation: primary hepatocytes of Af6 flox/flox mice stimulated with Flag-TNFα (100 ng/mL), lysed in NP-40 buffer, anti-FLAG beads; immunoblot; only the target purified
[2] = target: T1, RIPK1 (receptor-interacting serine/threonine kinase 1), endogenous, mouse (mouse (endogenous in primary hepatocytes and MEFs)) (UniProt Q60855); assay: co-IP; endogenous proteins in lysate of Af6 flox/flox mouse primary hepatocytes (NP-40 buffer); control mouse IgG, anti-AF6 or anti-RIPK1 monoclonal antibody, A/G-agarose beads; immunoblot
T1 sequence: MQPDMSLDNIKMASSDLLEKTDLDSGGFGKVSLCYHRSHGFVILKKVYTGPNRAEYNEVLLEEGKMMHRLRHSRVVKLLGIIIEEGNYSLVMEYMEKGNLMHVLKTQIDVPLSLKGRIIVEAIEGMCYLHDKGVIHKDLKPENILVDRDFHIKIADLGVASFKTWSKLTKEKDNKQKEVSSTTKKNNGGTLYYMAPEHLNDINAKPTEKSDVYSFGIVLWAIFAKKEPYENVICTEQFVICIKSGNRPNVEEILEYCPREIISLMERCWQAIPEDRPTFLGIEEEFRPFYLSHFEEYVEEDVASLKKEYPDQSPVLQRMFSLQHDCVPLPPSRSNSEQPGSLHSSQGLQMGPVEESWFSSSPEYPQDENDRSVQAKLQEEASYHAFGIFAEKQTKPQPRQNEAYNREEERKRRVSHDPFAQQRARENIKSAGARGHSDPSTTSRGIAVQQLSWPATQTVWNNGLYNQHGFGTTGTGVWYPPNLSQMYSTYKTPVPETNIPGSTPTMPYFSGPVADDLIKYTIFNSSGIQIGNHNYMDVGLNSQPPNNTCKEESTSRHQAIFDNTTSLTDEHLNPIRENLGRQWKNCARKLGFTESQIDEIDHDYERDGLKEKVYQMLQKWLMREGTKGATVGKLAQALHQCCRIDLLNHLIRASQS

[3] = target: T1, RIPK1 (receptor-interacting serine/threonine kinase 1), endogenous, mouse (mouse (endogenous in primary hepatocytes and MEFs)); assay: co-IP; endogenous proteins in lysate of MEF cells (wild type or RIPK1 K376R/K376R; NP-40 buffer); control mouse IgG, anti-AF6 or anti-RIPK1 monoclonal antibody, A/G-agarose beads; immunoblot
[4] = target: T2, RIPK1 K376R (endogenous, knock-in MEFs) (mouse (endogenous in MEFs)) (UniProt Q60855); assay: as above
T2 sequence: T1 sequence with K376R

TNFα-FLAG [5] = target: TNFα-FLAG (UniProt P06804); assay: co-IP; Complex I precipitation: MEFs stimulated with FLAG-TNFα (100 ng/mL), lysed in NP-40 buffer, anti-FLAG beads; immunoblot; only the target purified
[6] = target: T3, FLAG-tagged full-length RIPK1 (UniProt Q60855); assay: co-IP; 293T cells transfected 24 h with HA-tagged AF6 and Flag-tagged RIPK1 constructs; NP-40 lysate; anti-FLAG beads 4 h at room temperature; immunoblot
T3 sequence: T1 sequence

[7] = target: AF6 (endogenous, mouse) (mouse (endogenous in primary hepatocytes and MEFs)) (UniProt Q9QZQ1); assay: co-IP; endogenous proteins in lysate of Af6 flox/flox mouse primary hepatocytes (NP-40 buffer); control mouse IgG, anti-AF6 or anti-RIPK1 monoclonal antibody, A/G-agarose beads; immunoblot
[8] = target: T1, RIPK1 (receptor-interacting serine/threonine kinase 1), endogenous, mouse (mouse (endogenous in primary hepatocytes and MEFs)); assay: as above; remark: listed apart in the source

With “AF6 (endogenous, mouse) (from UniProt Q9QZQ1 1-1820)” the binding (TNFα-FLAG [1]) was “binds”, the binding [2] was “binds” and the binding [3] was “binds”. For the same molecule, the binding [4] was “binds” and the binding (TNFα-FLAG [5]) was “binds”.

For “HA-tagged AF6 (from UniProt Q9QZQ1 1-1820)”, the binding [6] was “binds”.

B1: ubiquitin-specific peptidase 21 (USP21), endogenous, mouse (enzyme, UniProt Q9QZL6 1-566)
chain: MPQASEHRLGRTREPPVNVQPRVGAKIPFPPRARSKERRNPVPGPNSMLRPLPPRPGPPDERLKKLELGRGRTSGSRPRGPLRADHGVPLPGSPPPAVALPLPSRTNLARSKSVSSGDLRPMGIALGGHRGAGELGAALSRLALRPEPPTLRRSTSLRRLGGFPGPPTLLSIRTEPPTSHGSFHMISARPSEPFYSDDKMAHHTLLLGSGHVGLRNLGNTCFLNAVLQCLSSTRPLRDFCLRRDFRQEVPGGGRAQELTEAFADVIGALWHPDSCEAVNPTRFRAVFQKYVPSFSGYSQQDAQEFLKLLMERLHLEINRRGRRAPPILASGPVPSPPRRGGGALHEEPELSDDDRANLMWKRYLEREDSKIVDLFVGQLKSCLKCQACGYRSTTFEVFCDLSLPIPKKGFAGGKVSLRDCFSLFTKEEELESENAPVCDRCRQKTRSTKKLTVQRFPRILVLHLNRFSTSRGSIKKSSVGVDFPLQRLSLGDFASDKAGSPVYQLYALCNHSGSVHYGHYTALCRCQTGWHVYNDSRVSPVSENQVASSEGYVLFYQLMQEPLRCL
For B1, the binding [7] was “binds” and the binding [8] was “binds”.

B2: cylindromatosis (CYLD), endogenous, mouse (enzyme, UniProt Q80TQ2 1-952)
chain: MSSGLWSQEKVTSPYWEERIFYLLLQECSVTDKQTQKLLKVPKGSIGQYIQDRSVGHSRVPSTKGKKNQIGLKILEQPHAVLFVDEKDVVEINEKFTELLLAITNCEERLSLFRNRLRLSKGLQVDVGSPVKVQLRSGEEKFPGVVRFRGPLLAERTVSGIFFGVELLEEGRGQGFTDGVYQGKQLFQCDEDCGVFVALDKLELIEDDDNGLESDFAGPGDTMQVEPPPLEINSRVSLKVGESTESGTVIFCDVLPGKESLGYFVGVDMDNPIGNWDGRFDGVQLCSFASVESTILLHINDIIPDSVTQERRPPKLAFMSRGVGDKGSSSHNKPKVTGSTSDPGSRNRSELFYTLNGSSVDSQQSKSKNPWYIDEVAEDPAKSLTEMSSDFGHSSPPPQPPSMNSLSSENRFHSLPFSLTKMPNTNGSMAHSPLSLSVQSVMGELNSTPVQESPPLPISSGNAHGLEVGSLAEVKENPPFYGVIRWIGQPPGLSDVLAGLELEDECAGCTDGTFRGTRYFTCALKKALFVKLKSCRPDSRFASLQPVSNQIERCNSLAFGGYLSEVVEENTPPKMEKEGLEIMIGKKKGIQGHYNSCYLDSTLFCLFAFSSALDTVLLRPKEKNDIEYYSETQELLRTEIVNPLRIYGYVCATKIMKLRKILEKVEAASGFTSEEKDPEEFLNILFHDILRVEPLLKIRSAGQKVQDCNFYQIFMEKNEKVGVPTIQQLLEWSFINSNLKFAEAPSCLIIQMPRFGKDFKLFKKIFPSLELNITDLLEDTPRQCRICGGLAMYECRECYDDPDISAGKIKQFCKTCSTQVHLHPRRLNHSYHPVSLPKDLPDWDWRHGCIPCQKMELFAVLCIETSHYVAFVKYGKDDSAWLFFDSMADRDGGQNGFNIPQVTPCPEVGEYLKMSLEDLHSLDSRRIQGCARRLLCDAYMCMYQSPTMSLYK
B2 was tested, and the binding [7] was “no binding”.

B3: A20 (TNFα-induced protein 3), endogenous, mouse (enzyme, UniProt Q60769 1-775)
chain: MAEQLLPQALYLSNMRKAVKIRERTPEDIFKPTNGIIYHFKTMHRYTLEMFRTCQFCPQFREIIHKALIDRSVQASLESQKKLNWCREVRKLVALKTNGDGNCLMHAACQYMWGVQDTDLVLRKALCSTLKETDTRNFKFRWQLESLKSQEFVETGLCYDTRNWNDEWDNLVKMASADTPAARSGLQYNSLEEIHIFVLSNILRRPIIVISDKMLRSLESGSNFAPLKVGGIYLPLHWPAQECYRYPIVLGYDSQHFVPLVTLKDSGPELRAVPLVNRDRGRFEDLKVHFLTDPENEMKEKLLKEYLIVMEIPVQGWDHGTTHLINAAKLDEANLPKEINLVDDYFELVQHEYKKWQENSDQARRAAHAQNPLEPSTPQLSLMDIKCETPNCPFFMSVNTQPLCHECSERRQKNQSKLPKLNSKLGPEGLPGVGLGSSNWSPEETAGGPHSAPPTAPSLFLFSETTAMKCRSPGCPFTLNVQHNGFCERCHARQINASHTADPGKCQACLQDVTRTFNGICSTCFKRTTAEPSSSLTSSIPASCHQRSKSDPSQLIQSLTPHSCHRTGNVSPSGCLSQAARTPGDRAGTSKCRKAGCMYFGTPENKGFCTLCFIEYRENKQSVTASEKAGSPAPRFQNNVPCLGRECGTLGSTMFEGYCQKCFIEAQNQRFHEARRTEEQLRSSQHRDMPRTTQVASRLKCARASCKNILACRSEELCMECQHLSQRVGSVAHRGEPTPEEPPKQRCRAPACDHFGNAKCNGYCNECYQFKQMYG
B3 was tested, and the binding [7] was “no binding”.
